# The supplement of paper PMC8728848
# This is one part of the list.
# B1: MFG-E8 (Mus musculus), P21956 (protein)
# chain: MQVSRVLAALCGMLLCASGLFAASGDFCDSSLCLNGGTCLTGQDNDIYCLCPEGFTGLVCNETERGPCSPNPCYNDAKCLVTLDTQRGDIFTEYICQCPVGYSGIHCETETNYYNLDGEYMFTTAVPNTAVPTPAPTPDLSNNLASRCSTQLGMEGGAIADSQISASSVYMGFMGLQRWGPELARLYRTGIVNAWTASNYDSKPWIQVNLLRKMRVSGVMTQGASRAGRAEYLKTFKVAYSLDGRKFEFIQDESGGDKEFLGNLDNNSLKVNMFNPTLEAQYIKLYPVSCHRGCTLRFELLGCELHGCSEPLGLKNNTIPDSQMSASSSYKTWNLRAFGWYPHLGRLDNQGKINAWTAQSNSAKEWLQVDLGTQRQVTGIITQGARDFGHIQYVASYKVAHSDDGVQWTVYEEQGSSKVFQGNLDNNSHKKNIFEKPFMARYVRVLPVSWHNRITLRLELLGC
# Columns and labels:
# Assay in all cases: glycan array binding signal (z-score within array); higher = stronger binding
# Conditions in all cases: glycan notation: IUPAC condensed, linker removed
# [1] = target: Gal(b1-4)GlcNAc(b1-2)Man(a1-3)[Gal(b1-4)GlcNAc(b1-2)][GlcNAc(b1-4)]Man(b1-4)GlcNAc(b1-4)GlcNAc
# Summary of the method: (§1)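 Glycan array data were curated from 3228 arrays in the Consortium for Functional Glycomics database and kept only where the protein sequence was available. Glycan names were converted to IUPAC-condensed notation, and columns mapping to the same glycan were averaged. The binding signal is a within-array Z-score, averaged across arrays of the same protein sequence at different concentrations or buffers and across linkers. Negative Z-scores can be read as non-binding.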
# [2] = target: Gal(b1-4)GlcNAc(b1-2)Man(a1-3)[GlcNAc(b1-2)Man(a1-6)]Man(b1-4)GlcNAc(b1-4)GlcNAc
# Summary of the method: as §1
# [3] = target: Gal(b1-4)GlcNAc(b1-2)Man(a1-3)[GlcNAc(b1-4)][Gal(b1-4)GlcNAc(b1-2)Man(a1-6)]Man(b1-4)GlcNAc(b1-4)GlcNAc
# Summary of the method: as §1
# [4] = target: Gal(b1-4)GlcNAc(b1-2)Man(a1-3)[Man(a1-6)]Man(b1-4)GlcNAc(b1-4)GlcNAc
# Summary of the method: as §1
# [5] = target: Gal(b1-4)GlcNAc(b1-2)Man(a1-6)Man(b1-4)GlcNAc(b1-4)GlcNAc
# Summary of the method: as §1
# [6] = target: Gal(b1-4)GlcNAc(b1-2)Man(a1-6)[GlcNAc(b1-2)Man(a1-3)]Man(b1-4)GlcNAc(b1-4)GlcNAc
# Summary of the method: as §1
# [7] = target: Gal(b1-4)GlcNAc(b1-2)Man(a1-6)[Man(a1-3)]Man(b1-4)GlcNAc(b1-4)GlcNAc
# Summary of the method: as §1
# [8] = target: Gal(b1-4)GlcNAc(b1-2)[Gal(b1-4)GlcNAc(b1-4)]Man(a1-3)[Gal(b1-4)GlcNAc(b1-2)Man(a1-6)]Man(b1-4)GlcNAc(b1-4)GlcNAc
# Summary of the method: as §1
# [9] = target: Gal(b1-4)GlcNAc(b1-2)[Gal(b1-4)GlcNAc(b1-4)]Man(a1-3)[Gal(b1-4)GlcNAc(b1-2)[Gal(b1-4)GlcNAc(b1-6)]Man(a1-6)]Man(b1-4)GlcNAc(b1-4)GlcNAc
# Summary of the method: as §1
# [10] = target: Gal(b1-4)GlcNAc(b1-2)[Gal(b1-4)GlcNAc(b1-4)]Man(a1-3)[GlcNAc(b1-4)][Gal(b1-4)GlcNAc(b1-2)Man(a1-6)]Man(b1-4)GlcNAc(b1-4)GlcNAc
# Summary of the method: as §1
# [11] = target: Gal(b1-4)GlcNAc(b1-2)[Gal(b1-4)GlcNAc(b1-4)]Man(a1-3)[GlcNAc(b1-4)][Gal(b1-4)GlcNAc(b1-2)[Gal(b1-4)GlcNAc(b1-6)]Man(a1-6)]Man(b1-4)GlcNAc(b1-4)GlcNAc
# Summary of the method: as §1
# [12] = target: Gal(b1-4)GlcNAc(b1-2)[Gal(b1-4)GlcNAc(b1-6)]Man(a1-6)[Gal(b1-4)GlcNAc(b1-2)Man(a1-3)]Man(b1-4)GlcNAc(b1-4)GlcNAc
# Summary of the method: as §1
# [13] = target: Gal(b1-4)GlcNAc(b1-2)[Gal(b1-4)GlcNAc(b1-6)]Man(a1-6)[Gal(b1-4)GlcNAc(b1-2)Man(a1-3)]Man(b1-4)GlcNAc(b1-4)[Fuc(a1-6)]GlcNAc
# Summary of the method: as §1
# [14] = target: Gal(b1-4)GlcNAc(b1-2)[Gal(b1-4)GlcNAc(b1-6)]Man(a1-6)[GlcNAc(b1-4)][Gal(b1-4)GlcNAc(b1-2)Man(a1-3)]Man(b1-4)GlcNAc(b1-4)GlcNAc
# Summary of the method: as §1
# [15] = target: Gal(b1-4)GlcNAc(b1-2)[Gal(b1-4)GlcNAc(b1-6)]Man(a1-6)[GlcNAc(b1-4)][Gal(b1-4)GlcNAc(b1-2)[Gal(b1-4)GlcNAc(b1-4)]Man(a1-3)]Man(b1-4)GlcNAc(b1-4)[Fuc(a1-6)]GlcNAc
# Summary of the method: as §1
# [16] = target: Gal(b1-4)GlcNAc(b1-3)Gal(b1-3)GalNAc
# Summary of the method: as §1
# [17] = target: Gal(b1-4)GlcNAc(b1-3)Gal(b1-3)GlcNAc
# Summary of the method: as §1
# [18] = target: Gal(b1-4)GlcNAc(b1-3)Gal(b1-4)Glc
# Summary of the method: as §1
# [19] = target: Gal(b1-4)GlcNAc(b1-3)Gal(b1-4)GlcNAc
# Summary of the method: as §1
binder,measurement,setting,value
B1,glycan array binding signal (z-score),[1],0.278
same,glycan array binding signal (z-score),[2],0.763
same,glycan array binding signal (z-score),[3],-0.341
same,glycan array binding signal (z-score),[4],-0.504
same,glycan array binding signal (z-score),[5],-0.372
same,glycan array binding signal (z-score),[6],-0.429
same,glycan array binding signal (z-score),[7],-0.64
same,glycan array binding signal (z-score),[8],-0.348
same,glycan array binding signal (z-score),[9],-0.913
same,glycan array binding signal (z-score),[10],0.139
same,glycan array binding signal (z-score),[11],-0.423
same,glycan array binding signal (z-score),[12],1.14
same,glycan array binding signal (z-score),[13],-0.69
same,glycan array binding signal (z-score),[14],0.293
same,glycan array binding signal (z-score),[15],-0.238
same,glycan array binding signal (z-score),[16],-0.19
same,glycan array binding signal (z-score),[17],-0.819
same,glycan array binding signal (z-score),[18],-0.286
same,glycan array binding signal (z-score),[19],0.082

# Given tab-delimited: part of the list above.
binder	measurement	setting	value
B1	glycan array binding signal (z-score)	[18]	-0.286
same	glycan array binding signal (z-score)	[19]	0.082
